Source: PubChem BioAssay AID1347075 (National Center for Advancing Translational Sciences (NCATS), 2019)
Out of some 400,000 compounds screened, about 5,500 (1.4%) were called active. This list was built around the results that the source calls inconclusive (neither active nor inactive); the mix of calls is not that of the screen. The call rests on the fitted dose curve; in most records, active means well fitted cell-killing curve with a large enough effect; inconclusive means small, poorly fitted or top-dose-only effect, or effect the other way; inactive means flat fitted curve, though single readings scatter. Where the call is inconclusive, the potency comes from a doubtful curve fit.

Assay: qHTS assay for MDR1-selective chemotherapeutics: Primary screen using the parental adenocarcinoma cell KB-3-1; further: nearly all actives have a fitted effect of over 60% in size
Details: KB-3-1 viability, CellTiter-Glo ATP luminescence, 72 h; activity change, negative = cytotoxic: at 46.1 µM (top of the series)
Summary of the method: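 Screening of KB-3-1 cells (DMEM, 10% FBS, phenol-red free) ran from lowest to highest compound concentration; after 72 h at 37 °C viability was read luminescently and curves fitted.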
On the % scale 0 is the no-effect control and ±100 the full control effect; potency means the concentration at half of the fitted maximal effect.

Compound | Potency | activity change, negative = cytotoxic
Cc1ccc(C(C[N+](=O)[O-])c2c(N)n(C)c(=O)n(C)c2=O)cc1 (configuration not stated) | active: 16.4 µM | –
O=C(OCCN=C1NS(=O)(=O)c2ccccc21)c1ccccc1F | – | inactive: -2.75%
O=C(NC1CCCCC1)N1CCCC1 | – | inactive: 1.31%
COc1cc(NC(=O)COCc2cc(-c3ccc(F)cc3)on2)cc(OC)c1OC | inconclusive: 29.1 µM [cytotoxic, single point] | –
O=C(Nc1ccc(Cl)c(-c2nc3cc(Cl)ccc3o2)c1)c1cc([N+](=O)[O-])ccc1N1CCOCC1 | – | inactive: 0.229%
CCN(CC(=O)NC1CCCC1)S(=O)(=O)c1ccc(Br)cc1 | – | inactive: -2.9%
Clc1ccc(OCc2nnc(SCc3nc4ccccc4[nH]3)n2Cc2ccco2)cc1 | inconclusive: 29.1 µM [cytotoxic, single point] | –
CC(C)(C)c1ccc(C(=O)Nc2ccc(F)cc2)s1 | inconclusive: 6.51 µM [rising, partial curve, poor fit] | –
COc1cc(-c2nnc(SCc3c(F)cccc3Cl)o2)cc(OC)c1OC | inconclusive: 29.1 µM [cytotoxic, single point] | –
Cc1ccc([N+](=O)[O-])cc1S(=O)(=O)Nc1ccc(C(=O)NCc2ccccn2)cc1 | – | inactive: 3.63%
COc1ccccc1C1(O)C(=O)Nc2ccccc21 (configuration not stated) | – | inactive: -9.5%
Fc1ccc(N2CCN(Cc3ccccn3)CC2)cc1 | – | inactive: -10.3%
CC1CCCN(c2nc3ccsc3c(=O)s2)C1 (configuration not stated) | inconclusive: 23.1 µM [cytotoxic, partial curve, poor fit] | –
CCN(CC)S(=O)(=O)c1ccc2oc(SCc3ccc(F)cc3)nc2c1 | inconclusive: 29.1 µM [cytotoxic, single point] | –
N#CCc1ccc(-c2cccc3nccn23)cc1 | inconclusive: 18.4 µM [cytotoxic, single point] | –
CCCCC(=O)NC(c1ccc(C(C)C)cc1)c1ccc2cccnc2c1O (configuration not stated) | inconclusive: 4.11 µM [cytotoxic, full curve] | –
CCNC(=S)N1CCN(c2nc(CC)nc3sc4c(c23)CCCC4)CC1 | inconclusive: 29.1 µM [cytotoxic, single point] | –
O=C(CCl)NCCN1C(=O)S/C(=C\c2cccnc2)C1=O | inconclusive: 29.1 µM [cytotoxic, single point] | –
Cn1cc(C(=O)N2CCN(c3cccc(C(F)(F)F)c3)CC2)c2c3ccccc3n(C)c2c1=O | inconclusive: 20.6 µM [cytotoxic, single point] | –
Cc1ccc(S(=O)(=O)Nc2ccccc2N2CCCCC2)cc1 | inconclusive: 29.1 µM [cytotoxic, single point] | –
CC1(C)CC(NC(=O)c2cc(Cl)ccc2Cl)CC(C)(C)N1 | – | inactive: 12.1%
COC(=O)c1cnc(SCc2ccc(Cl)cc2)n1C | – | inactive: -0.668%
CCN1CCN(C(=O)NC2CC(=O)N(c3ccc(OC)cc3)C2)CC1 (configuration not stated) | inconclusive: 9.2 µM [rising, partial curve, poor fit] | –
CCSC1=N/C(=C/c2ccsc2)C(=O)N1c1ccccc1 | inconclusive: 13 µM [rising, partial curve] | –

Exported field by field: entries from further up.
CCN(CC(=O)NC1CCCC1)S(=O)(=O)c1ccc(Br)cc1
  activity change, negative = cytotoxic: inactive: -2.9%
Clc1ccc(OCc2nnc(SCc3nc4ccccc4[nH]3)n2Cc2ccco2)cc1
  Potency: inconclusive: 29.1 µM [cytotoxic, single point]
CC(C)(C)c1ccc(C(=O)Nc2ccc(F)cc2)s1
  Potency: inconclusive: 6.51 µM [rising, partial curve, poor fit]

Additional results

Compound | Potency | activity change, negative = cytotoxic
O=C(NCC(c1cccs1)N1CCOCC1)c1ccc(Cl)nc1 (configuration not stated) | inconclusive: 20.6 µM [cytotoxic, single point] | –
CC(C)Nc1ncnc2c1cnn2-c1ccc(Cl)cc1 | active: 7.31 µM | –
CCOc1ccc(NC(=O)CN(c2ccc(Cl)cc2C)S(=O)(=O)c2ccccc2)cc1 | inconclusive: 32.6 µM [cytotoxic, partial curve, poor fit] | –
CC(=O)Nc1ccc(N(C(=O)Cc2cccs2)C(C(=O)NC2CCCC2)c2ccncc2)cc1 (configuration not stated) | – | inactive: 5.17%
CCCCn1c(=N)n(CC(O)COc2ccc(C)cc2)c2ccccc21 (configuration not stated) | active: 17.8 µM | –
O=C(N/N=C/c1ccc(O)c(O)c1)N/N=C/c1ccc(O)c(O)c1 | inconclusive: 23.1 µM [cytotoxic, single point] | –
CCOC(=O)c1[nH]c(C)c(CN(Cc2ccco2)C(=O)C(F)(F)F)c1C | inconclusive: 18.4 µM [cytotoxic, single point] | –
Cc1ccc(-n2c(SCC(=O)O)nc3sc4c(c3c2=O)CCCC4)cc1 | – | inactive: 7.34%
CCN(CC)c1ccc(/C=C2\SC(N)=NC2=O)cc1 | – | inactive: 1.56%
C=CCC[C@H](Cc1ccc(F)cc1)C(=O)OC[C@@H](NC(=O)[C@@H](CC=C)CC(=O)N[C@@H](CO)Cc1ccccc1)C(C)(C)C | inconclusive: 18.4 µM [cytotoxic, partial curve, poor fit] | –
COc1cc2c(cc1OC)CN(C1CCC(C(C)(C)C)CC1)CC2 (configuration not stated) | inconclusive: 25.9 µM [cytotoxic, single point] | –
Cc1ccc(C(=O)OCC(=O)Nc2sccc2C(N)=O)cc1NC(=O)c1ccco1 | inconclusive: 8.2 µM [rising, partial curve] | –
Clc1ccc(/C=C/c2ccncc2)cc1Cl | inconclusive: 29.1 µM [cytotoxic, single point] | –
O=C(Cn1c(=O)c2ccccc2n(CC(=O)Nc2ccc(F)cc2F)c1=O)NCCc1ccccc1 | – | inactive: 10.2%
COc1ccc(-c2nc3cc(C(C)C)ccc3o2)cc1NC(=O)COc1ccc(C)cc1C | – | inactive: 12%
CC(=O)c1sc2c(c1OC(=O)c1ccccc1)c(=O)n(-c1ccccc1)c(=S)n2-c1ccccc1 | active: 8.2 µM | –
Cc1nc(SCC(=O)Nc2c(C)nn(C)c2C)c2cnn(-c3ccccc3)c2n1 | inconclusive: 20.6 µM [cytotoxic, partial curve, poor fit] | –
CCN(CC)c1ccc(C(=O)OCC(=O)N2CCCC2)cc1 | – | inactive: -0.666%
COc1ccc(NC(=O)CCSc2nc(-c3ccco3)cc(C(F)(F)F)n2)cc1 | inconclusive: 11.6 µM [rising, partial curve] | –
C=CCNC(=S)N/N=C/c1ccc(C)cc1C | inconclusive: 29.1 µM [cytotoxic, single point] | –
Nc1c(C(=O)c2cccs2)sc2nsc(SCCN3CCCCC3)c12 | inconclusive: 23.1 µM [cytotoxic, single point] | –
N#Cc1c2c(c(NCCCN3CCOCC3)n3c1nc1ccccc13)CCC2 | inconclusive: 20.6 µM [rising, partial curve, poor fit] | –
CCN(c1ccccc1)c1cc2ccccc2c(=O)[nH]1 | – | inactive: 2.53%
O=C(CC1SC(=Nc2ccccc2)N(CCc2c[nH]c3ccccc23)C1=O)Nc1ccccc1F (configuration not stated) | inconclusive: 20.6 µM [cytotoxic, partial curve, poor fit] | –

Two of the compounds above, with tabs.
Compound	Potency	activity change, negative = cytotoxic
CCOc1ccc(NC(=O)CN(c2ccc(Cl)cc2C)S(=O)(=O)c2ccccc2)cc1	inconclusive: 32.6 µM [cytotoxic, partial curve, poor fit]	–
CC(=O)Nc1ccc(N(C(=O)Cc2cccs2)C(C(=O)NC2CCCC2)c2ccncc2)cc1 (configuration not stated)	–	inactive: 5.17%

Next part:

Compound | Potency | activity change, negative = cytotoxic
CCn1ccnc1CN(C)C(=O)c1cc(COc2ccc(OC)c3ccccc23)on1 | – | inactive: -15.3%
c1ccn2cc(-c3ccc4c(c3)OCCO4)nc2c1 | inconclusive: 18.4 µM [cytotoxic, partial curve] | –
Cc1ccc(NC(=O)COC(=O)c2ccccc2OCC(=O)Nc2ccc(Br)cc2)c(C)c1 | – | inactive: 9.07%
Cc1cc(Cl)ccc1NNC(=O)c1snnc1C | inconclusive: 29.1 µM [cytotoxic, single point] | –
Cc1ccc(CN(CC(=O)NC(C)(C)C)C(=O)CNC(=O)c2cccs2)cc1 | inconclusive: 0.0231 µM [rising, full curve] | –
CCN(CC)c1ccc(CN(C(=O)Cc2coc3ccc(C)cc23)C2CCS(=O)(=O)C2)cc1 (configuration not stated) | inconclusive: 14.6 µM [cytotoxic, partial curve, poor fit] | –
O=C(CCN1CCOCC1)NNC(=S)NC(=O)c1ccc(Br)cc1 | inconclusive: 16.4 µM [cytotoxic, partial curve] | –
CC(C)(C)C(=O)N(CCN(C(=O)C(C)(C)C)c1ccccc1)c1ccccc1 | inconclusive: 16.4 µM [cytotoxic, single point] | –
CCCNc1nc2c(c(=O)n(C)c(=O)n2C)n1Cc1ccc(F)cc1 | inconclusive: 29.1 µM [cytotoxic, single point] | –
O=C(Nc1ccn(CCCN2CCC(N3CCOCC3)CC2)c(=O)n1)OCc1ccccc1 | – | inactive: 1.6%
C[N+](C)(CCCCCI)c1ccc(/C=C/c2nc3ccccc3s2)cc1 | inconclusive: 8.2 µM [cytotoxic, partial curve, poor fit] | –
Cn1c(SCC(=O)Nc2ccccc2Br)nnc1-c1cnccn1 | – | inactive: 24.8%
O=C1NC(CCc2ccccc2)C(=O)N1CCOc1ccccc1 (configuration not stated) | – | inactive: -5.58%
CNCCCOc1ccc(Cl)cc1C(C)(C)C | inconclusive: 29.1 µM [cytotoxic, single point] | –
O=C(c1[nH]c2ccccc2c1Sc1ccc(Cl)cc1)N1CCCCC1 | – | inactive: -7.47%
CCn1c(-c2ccc(F)cc2)n[nH]c1=S | – | inconclusive: -35.6% [cytotoxic]
O=C(NC1CCCC1)C1c2ccccc2OCC(=O)N1Cc1ccc2c(c1)OCO2 (configuration not stated) | – | inactive: -5.88%
COc1ccc(C(=O)O/N=C(\N)Cc2ccc(Cl)cc2Cl)cc1OC | inconclusive: 25.9 µM [cytotoxic, single point] | –
Cc1[nH][nH]c(=O)c1C(c1ccc(-c2ccc(Cl)c(Cl)c2)o1)c1c(C)[nH][nH]c1=O | – | inactive: -5.54%
O=Nc1ccc(NO)c2ccccc12 | inconclusive: 16.4 µM [cytotoxic, partial curve, poor fit] | –
COc1ccc(/C=C/C(=O)NC(=S)NNC(=O)c2cccnc2)cc1OC | – | inactive: 1.06%
Cc1cc2nn(-c3ccc(F)cc3)nc2cc1NC(=O)c1cccc2ccccc12 | – | inactive: -20.8%
CCOC(=O)c1cnn(-c2nc(SC)nc3sc4c(c23)CCCC4)c1N | inconclusive: 29.1 µM [cytotoxic, single point] | –
CC1CCN(S(=O)(=O)c2ccc3c(c2)C(=NO)c2cc(S(=O)(=O)N4CCC(C)CC4)ccc2-3)CC1 | inconclusive: 0.651 µM [cytotoxic, full curve, poor fit] | –
